System: HCT-116 cells
Assay: WST-1 cell viability assay, HCT-116
Assay type: cell-based, human
Conditions: HCT-116, 24 h
Method: Cell viability was analyzed with the WST-1 assay based on the cleavage of the stable tetrazolium salt WST-1 by the mitochondrial reductase system. Cells were seeded in the appropriate densities in a clear 96-well plate and settled overnight at 37°C in 5% CO2. The next day, the cells were treated with NFA or the substances of interest (≤0.1% dimethyl sulfoxide [DMSO]) and incubated for 24 or 48 h at 37°C in 5% CO2. Cell viability was analyzed by adding 10 µl WST-1 solution (Roche, Basel, Switzerland) and subsequently incubating the cells at 37°C for another 30–40 min. Absorbance was measured at 450 nm with a control wavelength at 620 nm using a plate reader.
Besides targeting the NF-κB pathway, the anti-tumorigenic effects of NFA can be observed by a reduction of colorectal cancer cell viability. […] Again, the cytotoxic effects of NFA were determined in HCT-116 and HT-29 colorectal cancer cells in the present study. […] HCT-116 cells were treated with increasing concentrations of NFA differing in chain length and Michael acceptor position for 24 h, and cell viability was determined using the WST-1 assay. Due to their prolonged cell division rate and their lack of sensitivity towards NFA ([Kühn et al., 2018]), HT-29 cells were treated for 48 h to gain improved NFA activity.

SMILES | IC50 higher compared to 9NOA
CCC=C(CCCCCCCC(=O)O)[N+](=O)[O-] [12.9.9, 9-nitro-dodec-9-enoic acid] | 3–4 fold
CCCCC=C(CCCCCCCC(=O)O)[N+](=O)[O-] [14.9.9, 9-nitro-tetradec-9-enoic acid] | 3–4 fold
